We go through three molecules from article doi:10.1101/2025.08.16.670655.

Sequences of proteins named here, by UniProt entry; tags and fusion partners are left off.
UniProt P20649: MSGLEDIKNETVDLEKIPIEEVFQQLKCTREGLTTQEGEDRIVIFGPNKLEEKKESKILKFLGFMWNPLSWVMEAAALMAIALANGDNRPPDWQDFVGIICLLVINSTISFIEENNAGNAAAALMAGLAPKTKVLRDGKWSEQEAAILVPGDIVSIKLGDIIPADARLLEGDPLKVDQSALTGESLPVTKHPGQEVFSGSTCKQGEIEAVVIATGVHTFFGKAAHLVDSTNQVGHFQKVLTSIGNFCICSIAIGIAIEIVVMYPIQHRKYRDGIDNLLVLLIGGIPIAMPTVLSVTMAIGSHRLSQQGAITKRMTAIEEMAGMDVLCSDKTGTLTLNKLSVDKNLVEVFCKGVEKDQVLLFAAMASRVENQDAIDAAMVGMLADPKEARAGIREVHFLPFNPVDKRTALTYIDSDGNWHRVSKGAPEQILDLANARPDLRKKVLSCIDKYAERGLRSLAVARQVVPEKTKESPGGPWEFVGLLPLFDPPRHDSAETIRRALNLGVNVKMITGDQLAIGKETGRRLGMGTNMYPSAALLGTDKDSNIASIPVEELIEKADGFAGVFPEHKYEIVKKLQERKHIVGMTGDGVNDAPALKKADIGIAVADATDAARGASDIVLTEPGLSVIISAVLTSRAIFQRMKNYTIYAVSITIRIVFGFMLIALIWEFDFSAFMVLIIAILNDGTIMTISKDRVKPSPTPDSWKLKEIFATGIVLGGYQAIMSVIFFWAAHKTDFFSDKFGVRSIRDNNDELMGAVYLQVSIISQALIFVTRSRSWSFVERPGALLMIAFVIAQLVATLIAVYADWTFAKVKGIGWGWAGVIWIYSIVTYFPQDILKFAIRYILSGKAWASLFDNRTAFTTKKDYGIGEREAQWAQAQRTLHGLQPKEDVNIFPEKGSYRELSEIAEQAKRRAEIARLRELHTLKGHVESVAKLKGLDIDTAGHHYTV
UniProt Q96299: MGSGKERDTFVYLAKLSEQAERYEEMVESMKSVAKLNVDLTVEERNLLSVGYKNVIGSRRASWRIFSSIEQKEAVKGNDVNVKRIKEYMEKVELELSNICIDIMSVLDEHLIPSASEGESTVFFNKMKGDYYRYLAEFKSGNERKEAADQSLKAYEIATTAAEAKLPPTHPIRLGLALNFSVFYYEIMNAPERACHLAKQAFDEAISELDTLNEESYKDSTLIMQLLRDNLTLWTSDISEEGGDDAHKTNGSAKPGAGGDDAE

No constants are given. Whether binding was seen depends on the method and setting. Binding seen in cells or lysates may run through a third protein. These calls come from enrichment with a bait or labelling near it, and not all partners need be listed.

The labels stand for the following.
B1: endogenous GRF2 (protein, UniProt Q01525 1-259)
chain: MASGREEFVYMAKLAEQAERYEEMVEFMEKVSAAVDGDELTVEERNLLSVAYKNVIGARRASWRIISSIEQKEESRGNDDHVTAIREYRSKIETELSGICDGILKLLDSRLIPAAASGDSKVFYLKMKGDYHRYLAEFKTGQERKDAAEHTLAAYKSAQDIANAELAPTHPIRLGLALNFSVFYYEILNSPDRACNLAKQAFDEAIAELDTLGEESYKDSTLIMQLLRDNLTLWTSDMQDDAADEIKEAAAPKPTEEQQ
B2: endogenous GRF10 (protein, UniProt P48347 1-254)
chain: MENEREKQVYLAKLSEQTERYDEMVEAMKKVAQLDVELTVEERNLVSVGYKNVIGARRASWRILSSIEQKEESKGNDENVKRLKNYRKRVEDELAKVCNDILSVIDKHLIPSSNAVESTVFFYKMKGDYYRYLAEFSSGAERKEAADQSLEAYKAAVAAAENGLAPTHPVRLGLALNFSVFYYEILNSPESACQLAKQAFDDAIAELDSLNEESYKDSTLIMQLLRDNLTLWTSDLNEEGDERTKGADEPQDEN

The target of this assay is AHA1-GFP (Arabidopsis thaliana) (UniProt P20649). Kind of assay: affinity purification with mass spectrometry.
Consider “endogenous GRF9 (from UniProt Q96299 1-263)”, for which the binding result was “binds”.
Take B1: the binding result is recorded as “binds”.
Take B2: the binding result is reported as “binds”.
